This is an account of results in the supplement of paper PMC10849652.

Protein sequences, listed by entry. Tags and fused reporters are not part of them. Lines headed by an entry give the natural chain unless they say otherwise; changes in a name come on top.
UniProt Q92934: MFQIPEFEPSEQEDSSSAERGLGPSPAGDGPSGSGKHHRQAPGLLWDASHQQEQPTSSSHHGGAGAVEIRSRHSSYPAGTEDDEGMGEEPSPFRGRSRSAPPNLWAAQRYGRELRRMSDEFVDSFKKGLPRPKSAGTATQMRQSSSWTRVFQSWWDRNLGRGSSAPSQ
UniProt Q9NYF8, whole entry, looked up: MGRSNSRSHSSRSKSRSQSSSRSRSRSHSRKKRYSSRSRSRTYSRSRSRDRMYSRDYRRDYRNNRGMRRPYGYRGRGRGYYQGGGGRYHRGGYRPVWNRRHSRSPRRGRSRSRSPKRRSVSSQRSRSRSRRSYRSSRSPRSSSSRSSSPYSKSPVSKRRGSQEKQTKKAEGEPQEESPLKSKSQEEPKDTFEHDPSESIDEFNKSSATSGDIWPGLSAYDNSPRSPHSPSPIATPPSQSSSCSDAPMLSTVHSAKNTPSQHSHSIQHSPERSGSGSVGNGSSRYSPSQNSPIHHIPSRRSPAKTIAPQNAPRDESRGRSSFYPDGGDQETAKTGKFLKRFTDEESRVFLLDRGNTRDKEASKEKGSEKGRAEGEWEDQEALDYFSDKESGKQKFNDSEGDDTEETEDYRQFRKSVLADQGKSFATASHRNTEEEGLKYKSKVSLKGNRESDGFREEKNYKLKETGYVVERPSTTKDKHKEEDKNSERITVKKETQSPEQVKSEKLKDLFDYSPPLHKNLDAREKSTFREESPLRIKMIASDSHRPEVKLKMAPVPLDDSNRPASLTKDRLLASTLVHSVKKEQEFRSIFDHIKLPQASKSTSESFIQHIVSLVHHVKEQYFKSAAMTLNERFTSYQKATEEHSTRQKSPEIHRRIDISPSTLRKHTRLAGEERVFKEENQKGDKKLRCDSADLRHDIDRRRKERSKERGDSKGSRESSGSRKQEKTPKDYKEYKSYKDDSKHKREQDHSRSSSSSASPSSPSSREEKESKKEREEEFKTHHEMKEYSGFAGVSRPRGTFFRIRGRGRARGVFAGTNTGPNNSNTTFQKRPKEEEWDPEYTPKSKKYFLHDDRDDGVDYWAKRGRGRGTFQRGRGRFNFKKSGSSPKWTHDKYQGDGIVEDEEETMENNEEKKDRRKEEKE
UniProt Q99700, whole entry, looked up: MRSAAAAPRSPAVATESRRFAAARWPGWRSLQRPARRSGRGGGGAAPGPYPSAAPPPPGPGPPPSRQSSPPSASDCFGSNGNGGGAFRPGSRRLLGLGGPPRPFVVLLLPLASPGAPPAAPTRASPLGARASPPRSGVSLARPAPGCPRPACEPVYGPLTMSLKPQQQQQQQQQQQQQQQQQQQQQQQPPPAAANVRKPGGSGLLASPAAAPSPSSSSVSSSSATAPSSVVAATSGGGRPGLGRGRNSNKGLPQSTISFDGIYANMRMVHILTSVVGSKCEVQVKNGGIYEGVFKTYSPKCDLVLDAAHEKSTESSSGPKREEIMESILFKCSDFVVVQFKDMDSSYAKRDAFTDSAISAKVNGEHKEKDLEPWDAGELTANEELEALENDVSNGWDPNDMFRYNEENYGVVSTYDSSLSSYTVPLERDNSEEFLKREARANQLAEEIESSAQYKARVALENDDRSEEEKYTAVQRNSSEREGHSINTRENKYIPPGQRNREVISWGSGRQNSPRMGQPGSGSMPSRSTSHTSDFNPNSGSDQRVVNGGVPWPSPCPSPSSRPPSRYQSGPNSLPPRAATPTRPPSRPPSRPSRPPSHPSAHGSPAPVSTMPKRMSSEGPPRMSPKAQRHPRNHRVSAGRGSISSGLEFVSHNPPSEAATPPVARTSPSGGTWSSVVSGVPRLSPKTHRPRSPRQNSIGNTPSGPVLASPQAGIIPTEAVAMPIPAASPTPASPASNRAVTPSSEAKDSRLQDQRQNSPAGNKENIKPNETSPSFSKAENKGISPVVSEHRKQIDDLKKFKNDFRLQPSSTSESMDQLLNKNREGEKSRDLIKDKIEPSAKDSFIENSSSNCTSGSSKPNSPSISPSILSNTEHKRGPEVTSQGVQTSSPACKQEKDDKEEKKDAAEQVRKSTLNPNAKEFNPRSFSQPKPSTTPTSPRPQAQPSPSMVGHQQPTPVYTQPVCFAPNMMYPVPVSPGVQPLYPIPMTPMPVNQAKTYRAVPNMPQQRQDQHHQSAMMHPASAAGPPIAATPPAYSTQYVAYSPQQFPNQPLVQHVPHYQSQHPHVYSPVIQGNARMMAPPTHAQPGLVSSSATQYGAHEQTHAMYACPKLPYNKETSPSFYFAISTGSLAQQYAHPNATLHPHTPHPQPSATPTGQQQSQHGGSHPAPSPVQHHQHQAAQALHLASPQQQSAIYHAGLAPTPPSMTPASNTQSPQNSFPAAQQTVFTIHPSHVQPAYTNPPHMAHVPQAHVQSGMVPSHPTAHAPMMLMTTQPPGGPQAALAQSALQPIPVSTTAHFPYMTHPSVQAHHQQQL
UniProt Q9P287, whole entry, looked up: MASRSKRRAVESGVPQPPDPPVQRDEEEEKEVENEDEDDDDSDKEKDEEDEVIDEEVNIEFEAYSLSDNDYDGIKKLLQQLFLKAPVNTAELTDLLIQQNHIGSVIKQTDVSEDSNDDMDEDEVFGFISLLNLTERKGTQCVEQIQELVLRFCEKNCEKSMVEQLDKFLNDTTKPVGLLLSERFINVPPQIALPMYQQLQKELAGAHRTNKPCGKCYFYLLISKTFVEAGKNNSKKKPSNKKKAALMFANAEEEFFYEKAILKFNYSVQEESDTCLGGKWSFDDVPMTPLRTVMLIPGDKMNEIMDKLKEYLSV
UniProt P56945: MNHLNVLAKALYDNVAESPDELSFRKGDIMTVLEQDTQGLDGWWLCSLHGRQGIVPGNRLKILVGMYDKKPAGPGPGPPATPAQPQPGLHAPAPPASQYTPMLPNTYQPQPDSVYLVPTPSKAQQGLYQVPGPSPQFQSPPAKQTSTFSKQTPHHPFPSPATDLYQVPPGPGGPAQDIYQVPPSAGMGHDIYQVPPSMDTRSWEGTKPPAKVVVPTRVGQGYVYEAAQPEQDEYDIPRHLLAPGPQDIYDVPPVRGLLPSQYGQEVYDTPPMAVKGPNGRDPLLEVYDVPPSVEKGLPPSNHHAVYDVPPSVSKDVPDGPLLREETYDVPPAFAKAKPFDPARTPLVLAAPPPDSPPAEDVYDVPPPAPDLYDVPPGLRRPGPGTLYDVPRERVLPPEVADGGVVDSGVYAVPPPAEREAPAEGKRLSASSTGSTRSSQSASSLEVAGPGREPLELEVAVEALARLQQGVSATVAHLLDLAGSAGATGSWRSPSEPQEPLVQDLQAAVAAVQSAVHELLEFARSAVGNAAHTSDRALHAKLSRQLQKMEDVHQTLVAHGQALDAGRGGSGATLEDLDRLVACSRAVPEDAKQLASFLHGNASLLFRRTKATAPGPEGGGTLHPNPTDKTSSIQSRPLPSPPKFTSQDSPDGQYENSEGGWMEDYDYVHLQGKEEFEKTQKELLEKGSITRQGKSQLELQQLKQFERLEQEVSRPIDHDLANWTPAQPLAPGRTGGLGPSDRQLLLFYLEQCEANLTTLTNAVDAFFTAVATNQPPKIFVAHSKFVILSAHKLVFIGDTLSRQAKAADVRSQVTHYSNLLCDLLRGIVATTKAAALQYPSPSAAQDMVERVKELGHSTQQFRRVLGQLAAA
UniProt Q9NY97: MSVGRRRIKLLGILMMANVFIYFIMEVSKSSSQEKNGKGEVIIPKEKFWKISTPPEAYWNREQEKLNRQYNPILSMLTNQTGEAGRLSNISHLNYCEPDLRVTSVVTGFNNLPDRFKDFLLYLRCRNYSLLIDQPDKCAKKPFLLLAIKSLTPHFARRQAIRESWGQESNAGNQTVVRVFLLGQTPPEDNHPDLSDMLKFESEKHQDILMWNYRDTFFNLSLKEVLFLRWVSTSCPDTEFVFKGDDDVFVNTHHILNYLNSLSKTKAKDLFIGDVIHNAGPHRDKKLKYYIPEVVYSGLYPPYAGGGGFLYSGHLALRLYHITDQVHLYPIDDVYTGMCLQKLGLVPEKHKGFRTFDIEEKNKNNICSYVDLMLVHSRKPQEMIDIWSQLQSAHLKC
UniProt O95816: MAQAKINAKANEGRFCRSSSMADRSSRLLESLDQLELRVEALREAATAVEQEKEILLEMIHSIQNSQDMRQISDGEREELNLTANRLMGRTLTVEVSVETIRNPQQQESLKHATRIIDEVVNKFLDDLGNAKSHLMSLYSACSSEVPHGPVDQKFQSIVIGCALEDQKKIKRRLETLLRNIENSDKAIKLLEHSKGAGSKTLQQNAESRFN
UniProt Q9NWV8, whole entry, looked up: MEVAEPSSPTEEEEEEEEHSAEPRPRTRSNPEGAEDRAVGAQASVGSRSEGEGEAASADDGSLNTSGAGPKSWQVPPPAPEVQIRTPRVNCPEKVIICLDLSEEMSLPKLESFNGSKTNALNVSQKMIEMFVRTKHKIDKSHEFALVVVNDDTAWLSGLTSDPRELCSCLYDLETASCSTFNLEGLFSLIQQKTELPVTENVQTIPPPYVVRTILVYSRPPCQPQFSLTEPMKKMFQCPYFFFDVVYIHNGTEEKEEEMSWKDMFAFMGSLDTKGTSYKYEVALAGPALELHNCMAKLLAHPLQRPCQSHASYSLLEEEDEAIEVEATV
UniProt P78537: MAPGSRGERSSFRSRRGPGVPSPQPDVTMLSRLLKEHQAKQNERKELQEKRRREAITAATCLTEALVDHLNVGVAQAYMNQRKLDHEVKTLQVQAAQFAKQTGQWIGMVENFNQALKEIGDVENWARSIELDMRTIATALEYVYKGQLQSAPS
UniProt P12694: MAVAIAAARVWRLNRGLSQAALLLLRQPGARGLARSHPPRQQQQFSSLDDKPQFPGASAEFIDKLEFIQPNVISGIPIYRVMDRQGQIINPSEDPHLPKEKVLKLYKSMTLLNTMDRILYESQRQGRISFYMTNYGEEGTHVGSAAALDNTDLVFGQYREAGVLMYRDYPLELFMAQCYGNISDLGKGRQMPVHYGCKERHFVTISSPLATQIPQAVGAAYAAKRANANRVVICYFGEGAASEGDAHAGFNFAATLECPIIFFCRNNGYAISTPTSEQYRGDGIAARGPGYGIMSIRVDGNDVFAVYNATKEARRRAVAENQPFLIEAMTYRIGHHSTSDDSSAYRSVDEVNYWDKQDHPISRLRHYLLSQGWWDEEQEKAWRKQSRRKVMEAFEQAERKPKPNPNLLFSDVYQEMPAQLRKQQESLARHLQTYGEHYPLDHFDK
UniProt O14965: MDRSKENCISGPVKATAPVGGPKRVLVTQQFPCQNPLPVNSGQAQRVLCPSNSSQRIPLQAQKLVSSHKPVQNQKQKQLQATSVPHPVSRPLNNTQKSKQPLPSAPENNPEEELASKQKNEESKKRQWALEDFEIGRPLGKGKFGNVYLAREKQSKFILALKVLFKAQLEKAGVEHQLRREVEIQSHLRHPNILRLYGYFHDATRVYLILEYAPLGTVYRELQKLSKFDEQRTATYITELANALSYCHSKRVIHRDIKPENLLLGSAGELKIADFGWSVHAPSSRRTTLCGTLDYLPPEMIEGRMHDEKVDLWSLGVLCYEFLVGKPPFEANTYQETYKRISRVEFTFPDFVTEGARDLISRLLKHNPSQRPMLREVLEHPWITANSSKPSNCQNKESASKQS
UniProt P55957: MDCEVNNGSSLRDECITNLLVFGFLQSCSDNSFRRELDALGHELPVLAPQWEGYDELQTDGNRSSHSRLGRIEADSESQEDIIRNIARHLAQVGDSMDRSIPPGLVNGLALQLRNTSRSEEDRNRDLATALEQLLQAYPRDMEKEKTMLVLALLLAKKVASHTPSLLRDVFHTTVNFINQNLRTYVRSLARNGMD

Experiment in all cases: log2 fold change, soluble protein after heating vs DMSO (PISA); higher = thermal stabilisation; K562 cells, 10 uM, 30 min; active = over 0.2 and 3.5 SD of the protein, either way, in both replicates (recomputed)
Compound in assay [1]: CC1=C(C=C(C=C1)NC(=O)C2=CC(=CC=C2)C(C)(C)C#N)NC3=CC4=C(C=C3)N=CN(C4=O)C
The essentials:
(§1)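 Values are thermal stability changes relative to control samples and are taken from duplicates. They are stated as log2 fold changes. Before quantification by TMTpro 16plex LC-MS/MS with equalised channel sums, K562 cells at 2×10^6 cells/mL were treated with 10 μM compound for 30 min, heated in aliquots for 3 min across 48°C-58°C, pooled, extracted in PBS with 0.5% NP-40 at 4°C, and centrifuged at 21,000xg for 90 min to give the soluble supernatant.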

Compound in assay [2]: CC1=C(C=C(C=C1)NC(=O)C2=CC(=CC=C2)N(C)C)NC(=O)C3=CC=C(C=C3)O
The essentials: as §1

Compound in assay [3]: CC1=CC=C(C=C1)SC2=C3C=C(SC3=CN=C2)C(=O)N
Summed up:
as §1

Compound in assay [4]: CC1=NC(=CC=C1)C2=C(N=C(N2)C(C)(C)C)C3=CC4=NC=CN=C4C=C3
Summed up:
as §1

Compound in a further assay: CCCCN(Cc1ccc(C(=O)NO)cc1)C(=O)Nc1ccccc1 [Nexturastat A]
Summed up: as §1

Compound in the next assay: CCCS(=O)(=O)Nc1ccc(F)c(C(=O)c2c[nH]c3ncc(-c4ccc(Cl)cc4)cc23)c1F [vemurafenib]
The essentials: as §1

Compound in assay [5]: CCCS(=O)(=O)Nc1ccc(F)c(C(=O)c2c[nH]c3ncc(Cl)cc23)c1F
The essentials:
as §1

Compound in assay [6]: CCCc1cc(C)[nH]c(=O)c1CNC(=O)c1cc(-c2ccnc(N3CCN(C)CC3)c2)cc2c1cnn2C(C)C
The essentials: as §1

Compound in the next assay: CCN(CC)Cc1ccc2cc(COC(=O)Nc3ccc(C(=O)NO)cc3)ccc2c1 [givinostat]
Summed up: as §1

Compound in another assay: CCN(CCCOc1ccc2c(Nc3cc(CC(=O)Nc4cccc(F)c4)[nH]n3)ncnc2c1)CCOP(=O)(O)O [barasertib]
Summed up: as §1

Some of the results follow.

Turning to BAD (UniProt Q92934), the log2 fold change in [1] is inactive: -0.198; in assay [2], inactive: 0.007; in [3], inactive: -0.021; in [4] it was inactive: -0.051; with Nexturastat A, active: -0.324; with vemurafenib it was inactive: -0.076. Moreover, the log2 fold change in assay [5] was inactive: -0.037; in [6], inactive: 0.05; in the assay with givinostat it was inactive: -0.133; with barasertib, inactive: -0.003.

Regarding BCLAF1 (UniProt Q9NYF8), the log2 fold change in assay [1] is inactive: 0.012; in assay [2] it was inactive: -0.102; in [3], inactive: 0.004; in [4], inactive: 0.128; with Nexturastat A, inactive: 0.098; with vemurafenib, inactive: 0.225. For the same target, the log2 fold change in [5] was inactive: 0.097; in assay [6], inactive: 0.009; in the assay with givinostat it was inactive: 0.137; with barasertib, inactive: -0.071.

Consider ATXN2 (UniProt Q99700), for which the log2 fold change in assay [1] was inactive: -0.035; in assay [2] it was inactive: 0.029; in assay [3], inactive: -0.013; in assay [4] it was inactive: 0.021; with Nexturastat A, inactive: 0.048; in the assay with vemurafenib, inactive: 0.009. For the same target, the log2 fold change in assay [5] was inactive: -0.011; in assay [6] it was inactive: -0.027; with givinostat it was inactive: -0.004; with barasertib, inactive: 0.014.

BCCIP isoform 2 (UniProt Q9P287): the log2 fold change in assay [1] was inactive: 0.042; in assay [2] it was inactive: -0.055; in assay [3], inactive: -0.015; in [4] it was inactive: 0.022; with Nexturastat A, inactive: -0.065; with vemurafenib, inactive: 0.008. Moreover, the log2 fold change is inactive: -0.003 in [5], inactive: -0.099 in assay [6], inactive: -0.066 in the assay with givinostat and inactive: 0.026 with barasertib.

Turning to B4GALT7 (UniProt Q9UBV7), the log2 fold change in assay [1] is inactive: -0.01; in assay [2] it was inactive: -0.016; in [3], inactive: 0.044; in assay [4] it was inactive: 0.047; with Nexturastat A, inactive: -0.151; in the assay with vemurafenib, inactive: 0.027. Moreover, the log2 fold change in assay [5] is inactive: -0.079; in assay [6], inactive: -0.038; in the assay with givinostat it was inactive: -0.041; with barasertib, inactive: 0.012.

Regarding BCAR1 isoform 6 (UniProt P56945), the log2 fold change is inactive: 0.026 in assay [1]; inactive: -0.043 in [2]; inactive: -0.008 in assay [3]; inactive: 0.034 in [4]; inactive: 0.102 with Nexturastat A; inactive: 0.016 in the assay with vemurafenib. Moreover, the log2 fold change in assay [5] is inactive: -0.003; with givinostat it was inactive: 0.013; with barasertib it was inactive: 0.071.

As for B3GNT2 (UniProt Q9NY97), the log2 fold change in assay [1] was inactive: -0.003; in assay [2], inactive: -0.003; in assay [3] it was inactive: -0.036; in [4] it was inactive: 0.073; in the assay with Nexturastat A, inactive: -0.024; in the assay with vemurafenib, inactive: 0.022. Besides, the log2 fold change in assay [5] was inactive: 0.017; in [6], inactive: 0.089; with givinostat, inactive: 0.031; with barasertib, inactive: -0.01.

BAG2 (UniProt O95816): the log2 fold change in assay [1] is inactive: 0.046; in assay [2], inactive: 0.027; in assay [3], inactive: -0.032; in assay [4], inactive: -0.015; in the assay with Nexturastat A it was inactive: 0.15; in the assay with vemurafenib, inactive: -0.047. In addition, the log2 fold change in assay [5] is inactive: 0.093; in assay [6] it was inactive: 0.107; in the assay with givinostat it was inactive: 0.014; in the assay with barasertib it was inactive: -0.003.

For the target BABAM1 (UniProt Q9NWV8), the log2 fold change was inactive: -0.051 in [1]; inactive: 0.006 in assay [2]; inactive: -0.015 in [3]; inactive: 0.056 in assay [4]; inactive: -0.008 with Nexturastat A; inactive: -0.003 with vemurafenib. The log2 fold change in assay [5] is inactive: -0.012; in [6], inactive: 0.022; in the assay with givinostat, inactive: -0.125; in the assay with barasertib, inactive: -0.012.

With BLOC1S1 (UniProt P78537), the log2 fold change in [1] is inactive: 0.014; in [2], inactive: -0.044; in assay [3] it was inactive: 0.04; in [4], inactive: -0.003; with Nexturastat A it was inactive: -0.037; in the assay with vemurafenib it was inactive: 0.096. In addition, the log2 fold change in assay [5] was inactive: -0.015; in assay [6], inactive: 0.001; in the assay with givinostat, inactive: 0.024; in the assay with barasertib it was inactive: 0.043.

Take BCKDHA (UniProt P12694): the log2 fold change in [1] is inactive: -0.014; in [2] it was inactive: 0.003; in assay [3], inactive: -0.039; in [4], inactive: -0.048; in the assay with Nexturastat A, inactive: 0.036; with vemurafenib, inactive: -0.003. Moreover, the log2 fold change in assay [5] was inactive: 0.045; in [6] it was inactive: 0.058; in the assay with givinostat it was inactive: -0.006; with barasertib it was inactive: 0.075.

Take AURKA (UniProt O14965): the log2 fold change is inactive: -0.008 in [1]; inactive: -0.041 in assay [2]; inactive: -0.011 in assay [3]; inactive: -0.036 in [4]; inactive: 0.096 with Nexturastat A; inactive: -0.026 with vemurafenib. Further, the log2 fold change was inactive: 0.006 in [5], inactive: 0.01 in [6], inactive: 0.257 with givinostat and inactive: 0.114 with barasertib.

For BID isoform 2 (UniProt P55957), the log2 fold change in assay [1] was inactive: -0.054; in assay [2], inactive: -0.02; in assay [3], inactive: 0.029; in assay [4], inactive: 0.012; with Nexturastat A, inactive: -0.056; in the assay with vemurafenib, inactive: 0.117. The log2 fold change in assay [5] is inactive: 0.001; in assay [6], inactive: 0.016; with givinostat it was inactive: -0.001; with barasertib, inactive: -0.01.
